Among all 330,000 compounds or so, about 7,700 (2.3%) were called active. Inconclusive results, whose numbers are uncertain, are shown with a selection of clear calls. The call rests on the fitted dose curve; in most records, active means well fitted inhibition curve with a large enough effect; inconclusive means small, poorly fitted or top-dose-only effect, or effect the other way; inactive means flat fitted curve, though single readings scatter. Where the call is inconclusive, the potency comes from a doubtful curve fit.
assay: qHTS screen for small molecules that inhibit ELG1-dependent DNA repair in human embryonic kidney (HEK293T) cells expressing luciferase-tagged ELG1; conditions: HEK293T ELG1-luciferase reporter, luminescence, 16 h, DNA damage induced by 5-fluorouridine; activity change, negative = inhibition: at 46.1 µM (top of the series); further: nearly all actives have a fitted effect of over 55% in size
Outline: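 5-Fluorouridine DNA damage + compound/DMSO, 2,000 cells/well, 16 h, 37 °C/5% CO2. ONE-Glo, 30 min RT, luminescence. Readout = decrease in reporter signal.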
On the % scale 0 is the no-effect control and ±100 the full control effect; potency means the concentration at half of the fitted maximal effect.

SMILES | activity change, negative = inhibition | Potency
COc1cccc(N2CCN(C(=O)c3nc4nc(C)cc(C)n4n3)CC2)c1 | inactive: -3.35% | 
Cc1cccc2cc(COC(=O)c3ccccc3)c(=O)[nH]c12 |  | inconclusive: 23.1 µM [activator, single point]
COC(OC)c1ccc(C#N)c(=O)[nH]1 | inactive: 1.35% | 
O=C(N/N=C1/CC2CCC1C2)c1cc2ccccc2cc1O (stereo unspecified) | inactive: -12.2% | 
CCc1ccc(C(=O)Nc2nnn(CC)n2)cc1 |  | inconclusive: 0.326 µM [activator, single point]
COc1ccccc1NC(=O)NCCN1CCN(c2cccc(Cl)c2)CC1 | inactive: 1.97% | 
CCN1C(=O)/C(=C\N2CCN(c3cccc(Cl)c3)CC2)SC1=S |  | inconclusive: 29.1 µM [activator, single point]
COc1ccc(-c2cn(-c3ccc(C)cc3C)c(=S)[nH]2)cc1OC |  | inconclusive: 2.06 µM [inhibitor, full curve]
O=C(O)c1cncc(C#CCC2CCCCC2)c1 |  | inconclusive: 11.6 µM [activator, partial curve]
COC(=O)C(Cc1ccccc1)NC(=O)CNC(=O)c1ccc(Br)o1 (stereo unspecified) | inactive: 4.96% | 
Brc1ccc(-c2cn3nc4c(nc3n2)CCCC4)cc1 |  | inconclusive: 0.651 µM [activator, partial curve, poor fit]
Cc1cccc(NC(=O)CCS(=O)(=O)c2ccccc2)c1 |  | inconclusive: 11.6 µM [activator, partial curve]
Cc1c(C(=O)NCc2c(F)cc(F)cc2F)oc2ccc(S(=O)(=O)N3CCOCC3)cc12 |  | active: 29.1 µM
O=C(NCc1ccc(F)cc1)c1ccccc1OCc1ccccc1 | inactive: -15.7% | 
Cc1ccc(CNC(=O)C2(NC(=O)Nc3ccc(C)cc3)CCCCC2)cc1 | inactive: -5.95% | 
CC(=O)OC(c1nc2ccccc2c(=O)n1C1CC2(OC1=O)c1ccccc1N1C(=O)C(C)(C)N(O)C12)C(C)C (stereo unspecified) |  | inconclusive: 5.17 µM [inhibitor, partial curve, poor fit]
CCOc1ccc(C(=O)Nc2cccc(C(=O)O)c2)cc1Cl |  | inconclusive: 0.461 µM [activator, full curve]
CC(Oc1ccc(Br)cc1Cl)C(=O)Nc1ccncc1 (stereo unspecified) |  | inconclusive: 3.66 µM [inhibitor, full curve]
COc1cc(C2Nc3ccc4ccccc4c3C3=C2C(=O)CC(C)(C)C3)ccc1OCC(=O)O (stereo unspecified) |  | inconclusive: 11.2 µM [inhibitor, partial curve, poor fit]
C[C@@]12C(=O)N(Cc3ccccc3)CC(=O)N1[C@H]1c3cc(Cl)ccc3OC[C@@H]1[C@@H]2c1ccccc1 | inactive: -19.6% | 
CCOC(=O)C1CCCN(S(=O)(=O)Cc2ccccc2)C1 (stereo unspecified) | inactive: -1.26% | 
Cc1ccc(S(=O)(=O)NC2CCCC2)cc1C | inactive: 24.9% | 
Cc1ccc(NC(=O)Nc2nnc(-c3ccccc3F)s2)cc1 |  | inconclusive: 7.3 µM [activator, partial curve]
CCCS(=O)(=O)N1CCN(CCN2C(=O)c3cccc4cccc(c34)C2=O)CC1 |  | inconclusive: 4.61 µM [inhibitor, partial curve]

SMILES | activity change, negative = inhibition | Potency
C[C@H](NC(=O)[C@@H]1Cc2ccccc2CN1)C(=O)NCC1CCCO1 (stereo partly specified) | inactive: 27.6% | 
O=c1c(Cc2ccccc2O)c(O)nc2n1CCCS2 | inactive: -15% | 
Cc1ccc(NC(=O)CN2C(=O)NC(Cc3c[nH]c4ccccc34)C2=O)cc1S(=O)(=O)N1CCCCC1 (stereo unspecified) |  | inconclusive: 16.4 µM [inhibitor, partial curve]
Cc1cncn1CCc1nc2c3ccccc3nc(SCC(=O)Nc3cccc(Cl)c3)n2n1 |  | inconclusive: 14.6 µM [inhibitor, partial curve]
O=C1CCCC/C1=C\Nc1ccc(C(=O)O)c(O)c1 |  | inconclusive: 18.3 µM [activator, single point]
Cc1cnc(C(=O)OCc2csc(CC(=O)Nc3ccccc3C)n2)cn1 | inactive: 0% | 
Cc1cccc(OCc2nnc(SCC(=O)Nc3cccc(C(=O)N4CCOCC4)c3)n2C)c1C |  | inconclusive: 25.9 µM [inhibitor, single point]
NC(=O)N=Nc1c(O)n(Cc2ccccc2)c2ccc(Br)cc12 | inactive: -3.05% | 
C/C(N)=C(/C#N)C(=O)CSc1nc2ccccc2[nH]1 |  | inconclusive: 18.4 µM [activator, partial curve]
COc1cccc(NC(=O)CC(=O)c2ccc([N+](=O)[O-])cc2)c1 |  | inconclusive: 16.4 µM [activator, single point]
O=C(CCN1CCN(c2ccccc2)CC1)NNC(=S)Nc1ccccc1Cl | inactive: -13.2% | 
O=C(NC1CCS(=O)(=O)C1)c1ccc(-c2ccc(Br)cc2)o1 (stereo unspecified) | inactive: 2.23% | 
COc1cccc(NC(=O)CN(C)C(=O)/C=C/c2cn(-c3ccccc3)nc2-c2cccs2)c1 |  | inconclusive: 16.4 µM [inhibitor, partial curve]
N#C/C(=C\c1coc2ccc(O)cc2c1=O)C(=O)Nc1nc2ccccc2s1 |  | inconclusive: 2.91 µM [activator, full curve, poor fit]
O=C(O)c1cc(-c2ccc3ccccc3c2)nc2ccc(F)cc12 |  | inconclusive: 29.1 µM [activator, single point]
Cc1ccc(NC(=O)C2CCCN2C(=O)Oc2ccccc2)cc1 (stereo unspecified) |  | inconclusive: 0.206 µM [inhibitor, single point]
COc1ccc([C@@H]2C[C@@H](c3ccccc3)Oc3cc(OC)c(OC)c(OC)c32)cc1 | inactive: -6.06% | 
CCC(c1nnnn1Cc1ccccc1)N(Cc1ccco1)Cc1cc2cc(OC)ccc2[nH]c1=O (stereo unspecified) |  | inconclusive: 18.4 µM [inhibitor, single point]
CC(C)NC(=O)N(C)C[C@H]1Oc2ccc(NC(=O)CCN3CCOCC3)cc2C(=O)N([C@H](C)CO)C[C@@H]1C | inactive: -0.545% | 
Cc1ccc(C)c(N2N=C(C(=O)OCc3nnc(-c4ccccc4)o3)CCC2=O)c1 |  | inconclusive: 23.1 µM [activator, partial curve, poor fit]
Cc1ccc(-n2c(=O)c3cc4c(=O)n(-c5ccc(C)c(C)c5)c(=O)c4c(C(=O)c4ccc(C(=O)O)cc4)c3c2=O)cc1C | inactive: 24.4% | 
O=C(COC(=O)c1ccc2ccccc2n1)Nc1ccccc1F | inactive: -5.48% | 
O=C(COc1ccc(Cl)cc1Br)NC(=O)NC1CCCC1 |  | inconclusive: 9.2 µM [activator, partial curve]
O=S(=O)(c1ccc(Oc2ncnc3scc(-c4ccccc4)c23)cc1)N1CCOCC1 |  | inconclusive: 11.6 µM [inhibitor, partial curve]

Reprinted at random: 3 entries already listed
SMILES | activity change, negative = inhibition | Potency
Cc1cncn1CCc1nc2c3ccccc3nc(SCC(=O)Nc3cccc(Cl)c3)n2n1 |  | inconclusive: 14.6 µM [inhibitor, partial curve]
Cc1ccc(NC(=O)C2CCCN2C(=O)Oc2ccccc2)cc1 (stereo unspecified) |  | inconclusive: 0.206 µM [inhibitor, single point]
Cc1ccc(-n2c(=O)c3cc4c(=O)n(-c5ccc(C)c(C)c5)c(=O)c4c(C(=O)c4ccc(C(=O)O)cc4)c3c2=O)cc1C | inactive: 24.4% | 

(list continues)

SMILES | activity change, negative = inhibition | Potency
CCCN(CCC)S(=O)(=O)c1ccc(C(=O)N2CC3CCC(CC3)C2)cc1 |  | inconclusive: 14.6 µM [inhibitor, partial curve, poor fit]
Cc1ccc(-c2nc3ccccc3o2)cc1NC(=S)NC(=O)/C=C/c1ccco1 |  | inconclusive: 20.6 µM [inhibitor, single point]
Cn1c(=O)n(Cc2ccc(F)cc2)c(=O)c2c1nc1n2CCN1Cc1ccco1 |  | inconclusive: 29.1 µM [inhibitor, single point]
CCCc1nc2ccccc2c(=O)n1/N=C/c1ccc(O)cc1 |  | active: 11.6 µM
CCOc1cccc(/C=C/c2cc(C(=O)O)c3ccccc3n2)c1OC |  | inconclusive: 9.2 µM [activator, partial curve]
CCCCc1cc(=O)oc2c(C)c(OCC(=O)N3CCCC3)ccc12 |  | inconclusive: 20.6 µM [inhibitor, single point]
O=C(CNC(=O)c1cccc([N+](=O)[O-])c1)OCCCC(=O)c1ccc(F)cc1 | inactive: 5.85% | 
CC(C)(C)c1ccccc1OCC(=O)NCCC(=O)O | inactive: 0% | 
Cc1ccccc1-c1nc(-c2ccc(NC(=O)c3ccc4c(c3)OCO4)cc2)no1 |  | inconclusive: 29.1 µM [activator, single point]
Cn1c(=O)c(C(=O)Nc2ncccc2O)c(O)c2ccccc21 |  | inconclusive: 10 µM [activator, partial curve]
CC(=O)N1CCN(C(=O)CSc2cc(C)c(Br)cc2C)CC1 |  | inconclusive: 20.6 µM [activator, partial curve]
O=C(CCS(=O)(=O)c1ccc(F)cc1)N1CCOCC1 |  | inconclusive: 18.3 µM [activator, partial curve]
COc1ccccc1NS(=O)(=O)c1cccc(C(=O)N/N=C(\C)c2ccc3c(c2)OCCO3)c1 |  | inconclusive: 29.1 µM [inhibitor, single point]
N#C/C(=C\c1cccs1)C(=O)NCC1CCCO1 (stereo unspecified) |  | inconclusive: 14.1 µM [activator, single point]
Cc1ccc(C(=O)OCC(=O)c2ccc(CC(=O)N3CCOCC3)s2)c(C)c1 | inactive: 22.5% | 
CCCNC(=O)NC(=O)CN1C(=O)NC(C)(c2ccc3ccccc3c2)C1=O (stereo unspecified) | inactive: -23.5% | 
CCOC(=O)/C(=N\Nc1ccccc1[N+](=O)[O-])c1csc(Nc2ccccc2)n1 |  | inconclusive: 29.1 µM [inhibitor, single point]
O=C(OCC(=O)c1ccc[nH]1)c1ccccc1 |  | inconclusive: 18.3 µM [activator, partial curve]
Cc1ccccc1-c1nnc2c3ccccc3c(C)nn12 |  | inconclusive: 23.1 µM [activator, single point]
COc1ccc(-c2noc(-c3ccoc3C)n2)cc1 |  | inconclusive: 6.51 µM [activator, partial curve]
CSc1ccc(C(=S)N2CCN(C(c3ccccc3)c3ccccc3)CC2)cc1 | inactive: 9.96% | 
COc1cccc(N2CCN(S(=O)(=O)c3cn(C)cn3)CC2)c1 |  | inconclusive: 29.1 µM [activator, single point]
CSc1nncc(-c2ccccc2)n1 |  | inconclusive: 16.4 µM [activator, single point]

From PubChem BioAssay AID504467 (National Center for Advancing Translational Sciences (NCATS), 2011)
